From the supplement of paper PMC12819154, “High-throughput peptide-centric local stability assay extends protein–ligand identification to membrane proteins, tissues and bacteria” (Nature Structural & Molecular Biology, 2025)
Some of the results follow. Small differences around the control level are noise.

Sequences of proteins named here, by UniProt entry; tags and fusion partners are left off. A change or cut given only in a name is not applied to a line headed by its entry.
UniProt Q14BJ1: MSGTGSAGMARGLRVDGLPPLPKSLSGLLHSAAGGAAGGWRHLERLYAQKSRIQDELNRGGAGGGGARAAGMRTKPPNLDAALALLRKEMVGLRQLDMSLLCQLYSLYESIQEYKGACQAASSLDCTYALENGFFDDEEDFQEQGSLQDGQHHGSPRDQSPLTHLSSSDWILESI
UniProt Q07968: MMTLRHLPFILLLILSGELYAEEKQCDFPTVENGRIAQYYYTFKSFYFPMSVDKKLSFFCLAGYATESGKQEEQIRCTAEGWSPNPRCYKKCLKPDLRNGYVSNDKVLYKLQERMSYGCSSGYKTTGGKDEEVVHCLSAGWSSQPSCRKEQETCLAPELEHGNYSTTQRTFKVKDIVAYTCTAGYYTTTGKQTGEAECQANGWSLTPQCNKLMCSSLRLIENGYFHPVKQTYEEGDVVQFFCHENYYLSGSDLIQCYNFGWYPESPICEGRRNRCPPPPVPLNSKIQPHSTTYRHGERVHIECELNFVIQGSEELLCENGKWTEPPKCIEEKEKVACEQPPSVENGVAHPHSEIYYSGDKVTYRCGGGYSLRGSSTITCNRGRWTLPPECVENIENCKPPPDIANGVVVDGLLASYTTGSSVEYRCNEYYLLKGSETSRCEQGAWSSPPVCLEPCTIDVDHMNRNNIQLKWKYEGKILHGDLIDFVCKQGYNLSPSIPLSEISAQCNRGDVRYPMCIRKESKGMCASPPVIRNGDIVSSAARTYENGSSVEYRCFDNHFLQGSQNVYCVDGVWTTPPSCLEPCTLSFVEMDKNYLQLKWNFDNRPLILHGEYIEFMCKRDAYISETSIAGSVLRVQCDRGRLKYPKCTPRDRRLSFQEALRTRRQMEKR
UniProt Q3TDX8: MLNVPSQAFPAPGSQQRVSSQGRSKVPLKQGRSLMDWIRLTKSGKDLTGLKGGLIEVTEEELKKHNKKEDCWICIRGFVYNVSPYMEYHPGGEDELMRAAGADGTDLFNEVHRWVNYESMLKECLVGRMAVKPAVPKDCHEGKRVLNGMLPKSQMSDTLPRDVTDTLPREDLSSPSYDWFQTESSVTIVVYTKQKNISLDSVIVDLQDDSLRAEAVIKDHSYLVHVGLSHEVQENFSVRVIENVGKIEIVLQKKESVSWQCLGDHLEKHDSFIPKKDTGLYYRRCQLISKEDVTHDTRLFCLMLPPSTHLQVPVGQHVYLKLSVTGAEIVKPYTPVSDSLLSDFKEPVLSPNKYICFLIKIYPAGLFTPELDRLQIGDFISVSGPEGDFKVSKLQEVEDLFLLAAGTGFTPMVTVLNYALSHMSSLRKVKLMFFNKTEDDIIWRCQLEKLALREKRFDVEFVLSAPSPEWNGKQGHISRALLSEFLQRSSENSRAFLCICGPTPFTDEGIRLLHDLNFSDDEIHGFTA
UniProt Q3U0D9: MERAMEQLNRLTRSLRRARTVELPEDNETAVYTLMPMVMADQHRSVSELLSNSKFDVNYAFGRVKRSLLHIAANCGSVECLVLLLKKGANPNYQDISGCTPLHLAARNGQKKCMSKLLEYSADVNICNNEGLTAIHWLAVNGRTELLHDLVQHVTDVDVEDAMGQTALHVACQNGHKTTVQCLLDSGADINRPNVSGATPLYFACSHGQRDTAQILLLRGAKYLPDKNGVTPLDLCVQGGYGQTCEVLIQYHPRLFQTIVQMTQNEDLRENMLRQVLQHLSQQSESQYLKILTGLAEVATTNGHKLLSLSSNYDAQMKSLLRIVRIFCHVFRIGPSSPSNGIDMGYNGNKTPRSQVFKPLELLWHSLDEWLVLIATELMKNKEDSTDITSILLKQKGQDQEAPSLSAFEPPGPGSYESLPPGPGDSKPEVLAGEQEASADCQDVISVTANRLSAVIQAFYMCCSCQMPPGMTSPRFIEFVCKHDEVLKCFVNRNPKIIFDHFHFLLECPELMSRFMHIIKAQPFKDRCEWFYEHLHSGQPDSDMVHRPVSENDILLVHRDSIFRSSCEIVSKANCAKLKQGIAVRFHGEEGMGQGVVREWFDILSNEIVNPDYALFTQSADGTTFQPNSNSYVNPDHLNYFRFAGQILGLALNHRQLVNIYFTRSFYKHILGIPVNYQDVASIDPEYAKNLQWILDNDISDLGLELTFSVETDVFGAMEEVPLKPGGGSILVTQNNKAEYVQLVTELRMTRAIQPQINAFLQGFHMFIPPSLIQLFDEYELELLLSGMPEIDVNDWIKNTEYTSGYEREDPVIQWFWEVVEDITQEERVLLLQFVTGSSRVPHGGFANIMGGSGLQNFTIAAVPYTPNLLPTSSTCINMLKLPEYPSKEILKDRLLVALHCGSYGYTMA
UniProt Q3TL44, whole entry: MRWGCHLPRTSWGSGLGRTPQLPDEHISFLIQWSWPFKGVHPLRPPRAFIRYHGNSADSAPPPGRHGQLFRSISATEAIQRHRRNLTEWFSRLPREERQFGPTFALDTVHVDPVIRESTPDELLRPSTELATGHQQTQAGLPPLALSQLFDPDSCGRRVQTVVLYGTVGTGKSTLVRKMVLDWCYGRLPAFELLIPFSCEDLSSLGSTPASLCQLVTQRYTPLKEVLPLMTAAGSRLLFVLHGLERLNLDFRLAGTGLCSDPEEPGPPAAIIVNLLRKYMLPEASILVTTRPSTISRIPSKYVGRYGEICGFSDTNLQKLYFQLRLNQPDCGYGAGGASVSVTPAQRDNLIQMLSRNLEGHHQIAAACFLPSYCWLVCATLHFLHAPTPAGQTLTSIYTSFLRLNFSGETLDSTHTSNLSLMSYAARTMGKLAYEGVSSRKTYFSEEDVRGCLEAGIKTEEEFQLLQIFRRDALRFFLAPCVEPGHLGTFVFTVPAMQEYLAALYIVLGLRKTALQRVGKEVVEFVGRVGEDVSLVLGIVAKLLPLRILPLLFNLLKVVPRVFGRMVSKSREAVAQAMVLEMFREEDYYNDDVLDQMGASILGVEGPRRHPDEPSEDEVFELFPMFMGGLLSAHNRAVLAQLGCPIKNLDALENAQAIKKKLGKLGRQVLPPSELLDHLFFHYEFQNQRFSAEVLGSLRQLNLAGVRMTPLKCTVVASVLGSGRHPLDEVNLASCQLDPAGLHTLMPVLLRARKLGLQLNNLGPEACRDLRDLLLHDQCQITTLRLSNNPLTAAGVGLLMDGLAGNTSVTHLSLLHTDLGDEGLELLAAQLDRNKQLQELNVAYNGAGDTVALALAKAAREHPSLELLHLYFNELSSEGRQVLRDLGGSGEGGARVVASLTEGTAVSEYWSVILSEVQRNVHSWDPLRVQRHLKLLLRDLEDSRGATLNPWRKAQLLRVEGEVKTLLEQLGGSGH
UniProt Q3TFD2: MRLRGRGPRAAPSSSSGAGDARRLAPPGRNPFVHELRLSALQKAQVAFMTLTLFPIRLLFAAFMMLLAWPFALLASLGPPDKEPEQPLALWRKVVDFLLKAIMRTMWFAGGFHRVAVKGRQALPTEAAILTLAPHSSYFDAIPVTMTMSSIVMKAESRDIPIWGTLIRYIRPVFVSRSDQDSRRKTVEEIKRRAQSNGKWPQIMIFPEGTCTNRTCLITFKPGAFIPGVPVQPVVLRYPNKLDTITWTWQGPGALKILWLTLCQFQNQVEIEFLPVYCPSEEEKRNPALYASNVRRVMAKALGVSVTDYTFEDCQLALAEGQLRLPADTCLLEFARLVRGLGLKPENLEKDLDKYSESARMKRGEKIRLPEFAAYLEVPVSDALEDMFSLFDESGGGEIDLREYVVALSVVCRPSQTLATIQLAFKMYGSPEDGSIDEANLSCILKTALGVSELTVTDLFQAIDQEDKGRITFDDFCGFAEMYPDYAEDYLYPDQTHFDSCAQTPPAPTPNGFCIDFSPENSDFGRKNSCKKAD
UniProt Q059U7: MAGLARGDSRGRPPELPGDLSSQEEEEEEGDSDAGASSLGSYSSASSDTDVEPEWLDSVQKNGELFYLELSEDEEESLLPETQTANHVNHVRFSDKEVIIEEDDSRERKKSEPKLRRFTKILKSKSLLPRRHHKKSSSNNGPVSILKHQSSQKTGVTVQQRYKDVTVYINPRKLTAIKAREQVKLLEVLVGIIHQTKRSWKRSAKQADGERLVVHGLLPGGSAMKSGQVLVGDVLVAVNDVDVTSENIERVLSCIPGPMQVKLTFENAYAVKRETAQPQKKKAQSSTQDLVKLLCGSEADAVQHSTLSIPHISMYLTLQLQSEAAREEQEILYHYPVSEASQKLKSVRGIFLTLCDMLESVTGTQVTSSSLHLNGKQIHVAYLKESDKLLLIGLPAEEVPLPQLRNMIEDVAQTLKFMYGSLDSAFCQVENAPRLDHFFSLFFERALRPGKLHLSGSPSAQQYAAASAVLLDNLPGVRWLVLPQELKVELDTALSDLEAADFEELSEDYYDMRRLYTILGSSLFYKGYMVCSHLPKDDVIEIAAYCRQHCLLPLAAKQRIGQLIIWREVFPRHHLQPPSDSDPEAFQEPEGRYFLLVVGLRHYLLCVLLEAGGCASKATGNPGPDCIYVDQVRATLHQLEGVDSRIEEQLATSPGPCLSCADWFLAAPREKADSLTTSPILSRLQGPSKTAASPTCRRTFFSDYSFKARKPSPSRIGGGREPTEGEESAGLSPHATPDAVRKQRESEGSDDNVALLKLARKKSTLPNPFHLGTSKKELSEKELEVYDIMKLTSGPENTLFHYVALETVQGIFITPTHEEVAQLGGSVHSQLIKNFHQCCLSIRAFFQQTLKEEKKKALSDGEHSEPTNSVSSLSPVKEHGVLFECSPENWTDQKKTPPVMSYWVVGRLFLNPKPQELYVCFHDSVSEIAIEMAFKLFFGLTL
UniProt Q0P5Y3: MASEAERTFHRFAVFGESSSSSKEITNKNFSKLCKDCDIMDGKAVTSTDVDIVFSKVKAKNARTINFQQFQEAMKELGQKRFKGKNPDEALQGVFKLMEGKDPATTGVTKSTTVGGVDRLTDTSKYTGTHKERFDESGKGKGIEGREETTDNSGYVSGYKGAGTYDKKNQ
UniProt Q18PI6: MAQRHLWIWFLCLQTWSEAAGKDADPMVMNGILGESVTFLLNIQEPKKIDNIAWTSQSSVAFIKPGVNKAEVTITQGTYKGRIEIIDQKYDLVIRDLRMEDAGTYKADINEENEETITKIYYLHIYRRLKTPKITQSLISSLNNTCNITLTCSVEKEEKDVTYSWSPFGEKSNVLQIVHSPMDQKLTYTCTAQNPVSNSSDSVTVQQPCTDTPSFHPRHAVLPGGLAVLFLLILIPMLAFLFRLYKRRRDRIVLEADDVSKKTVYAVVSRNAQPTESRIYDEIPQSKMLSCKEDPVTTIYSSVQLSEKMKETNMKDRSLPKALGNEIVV
UniProt Q31125: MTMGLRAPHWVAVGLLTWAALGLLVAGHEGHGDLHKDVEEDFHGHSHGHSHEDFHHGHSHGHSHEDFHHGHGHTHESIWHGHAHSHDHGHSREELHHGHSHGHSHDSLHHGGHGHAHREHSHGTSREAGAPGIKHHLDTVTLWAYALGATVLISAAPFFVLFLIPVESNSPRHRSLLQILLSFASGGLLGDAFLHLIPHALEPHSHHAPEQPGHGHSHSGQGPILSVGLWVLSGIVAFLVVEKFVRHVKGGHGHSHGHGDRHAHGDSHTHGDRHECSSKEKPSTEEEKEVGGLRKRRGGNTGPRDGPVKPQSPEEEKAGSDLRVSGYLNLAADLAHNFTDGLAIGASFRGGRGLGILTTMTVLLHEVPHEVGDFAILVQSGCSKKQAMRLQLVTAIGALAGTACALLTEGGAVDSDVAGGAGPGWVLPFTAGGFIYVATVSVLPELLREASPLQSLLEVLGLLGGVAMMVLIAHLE
UniProt Q3TWI9: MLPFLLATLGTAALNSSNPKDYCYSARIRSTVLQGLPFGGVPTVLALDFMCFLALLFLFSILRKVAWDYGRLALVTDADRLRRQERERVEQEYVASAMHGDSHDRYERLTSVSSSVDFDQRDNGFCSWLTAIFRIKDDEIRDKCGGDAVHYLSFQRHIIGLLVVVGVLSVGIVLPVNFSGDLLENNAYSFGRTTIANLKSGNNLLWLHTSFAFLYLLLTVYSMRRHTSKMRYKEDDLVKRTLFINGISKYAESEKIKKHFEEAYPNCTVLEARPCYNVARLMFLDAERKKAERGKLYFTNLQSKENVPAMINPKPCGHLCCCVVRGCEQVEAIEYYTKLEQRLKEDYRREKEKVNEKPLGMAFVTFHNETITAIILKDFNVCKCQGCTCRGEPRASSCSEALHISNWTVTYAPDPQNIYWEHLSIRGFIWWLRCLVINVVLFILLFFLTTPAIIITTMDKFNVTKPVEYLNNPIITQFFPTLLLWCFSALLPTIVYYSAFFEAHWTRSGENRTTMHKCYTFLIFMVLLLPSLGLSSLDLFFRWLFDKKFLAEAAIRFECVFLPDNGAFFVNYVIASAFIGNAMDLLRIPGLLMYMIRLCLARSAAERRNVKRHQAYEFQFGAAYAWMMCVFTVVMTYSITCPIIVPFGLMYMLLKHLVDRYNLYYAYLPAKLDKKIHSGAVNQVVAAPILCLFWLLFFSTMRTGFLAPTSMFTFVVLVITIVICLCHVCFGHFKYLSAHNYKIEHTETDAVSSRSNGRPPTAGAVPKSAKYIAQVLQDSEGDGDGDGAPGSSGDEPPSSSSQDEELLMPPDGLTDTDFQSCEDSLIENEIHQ

Compound: CN[C@@H]1C[C@H]2O[C@@](C)([C@@H]1OC)n1c3ccccc3c3c4c(c5c6ccccc6n2c5c31)C(=O)NC4 [staurosporine]
Assay: log2 fold change of tryptic peptide abundance, ligand vs vehicle (limited proteolysis) (log2 ratio); higher = more trypsin-susceptible (destabilized)
Settings: ligand concentration: 20 uM; sample: mouse liver crude lysate; replicate design: treated separately

Target | log2 fold change
UniProt Q05144 (peptide sequence: DIDSVKYLECSALTQR, peptide start residue: 148) | -0.286
UniProt Q2TPA8 (peptide sequence: DEQQINSAVEK, peptide start residue: 77) | -0.23
UniProt Q3TB82 (peptide sequence: VLLGEGVLTK, peptide start residue: 35) | 0.135
UniProt Q14BJ1 (peptide sequence: SLSGLLHSAAGGAAGGWR, peptide start residue: 24) | -0.226
UniProt Q07968 (peptide sequence: NGDIVSSAAR, peptide start residue: 533) | 0.505
UniProt Q3TDX8 (peptide sequence: SQMSDTLPR, peptide start residue: 153) | 0.108
UniProt Q03401 (peptide sequence: RMVSPSGSDLLK, peptide start residue: 51) | 0.433
UniProt Q2EMV9 (peptide sequence: FRVLFSPEDVR, peptide start residue: 54) | -0.262
UniProt Q03172 (peptide sequence: QLPSFVLPVPQKR, peptide start residue: 1616) | -0.235
UniProt Q08288 (peptide sequence: TNGTTEEQTEAKK, peptide start residue: 171) | -0.397
UniProt Q3U0M1 (peptide sequence: VESRPTNPSEGSK, peptide start residue: 832) | -0.0806
UniProt Q3U0D9 (peptide sequence: DTAQILLLR, peptide start residue: 211) | 0.158
UniProt Q3TL44 (peptide sequence: GATLNPWRK, peptide start residue: 945) | 0.476
UniProt Q08761 (peptide sequence: GFAMLPNKKDCK, peptide start residue: 189) | 0.283
UniProt Q3TZ89 (peptide sequence: AHSPCAQASK, peptide start residue: 507) | -0.699
UniProt Q3TTL0 (peptide sequence: LKDTAEPVTK, peptide start residue: 104) | -0.305

Another view of part of the listing above:
Target	log2 fold change
UniProt Q3TZ89 (peptide sequence: AHSPCAQASK, peptide start residue: 507)	-0.699
UniProt Q3TTL0 (peptide sequence: LKDTAEPVTK, peptide start residue: 104)	-0.305

(further entries)

Target | log2 fold change
UniProt Q3TFD2 (peptide sequence: AAPSSSSGAGDAR, peptide start residue: 10) | -0.0121
UniProt Q3TRM4 (peptide sequence: VVSTSGTEDTSK, peptide start residue: 354) | -0.128
UniProt Q06180 (peptide sequence: VQDTVEESSESILRK, peptide start residue: 332) | -0.552
UniProt Q3KNJ2 (peptide sequence: QAHKDSGETQASSSTSPR, peptide start residue: 230) | -0.634
UniProt Q04859 (peptide sequence: RPTASQALK, peptide start residue: 272) | -0.501
UniProt Q059U7 (peptide sequence: LVVHGLLPGGSAMK, peptide start residue: 212) | 0.559
UniProt Q0P5Y3 (peptide sequence: FDESGKGK, peptide start residue: 139) | -0.221
UniProt Q3TT38 (peptide sequence: KVEGNFNPFASPQK, peptide start residue: 205) | -0.189
UniProt Q06890 (peptide sequence: VSTVTTHSSDSEVPSR, peptide start residue: 385) | 0.168
UniProt Q18PI6 (peptide sequence: IYDEIPQSK, peptide start residue: 279) | -0.138
UniProt Q1WG82 (peptide sequence: RCASCRTQR, peptide start residue: 196) | -0.0133
UniProt Q3TLD5 (peptide sequence: MSDAAGDFVDIR, peptide start residue: 149) | 0.27
UniProt Q31125 (peptide sequence: DGPVKPQSPEEEK, peptide start residue: 305) | 0.578
UniProt Q3TWI9 (peptide sequence: KFLAEAAIR, peptide start residue: 548) | 0.373
UniProt Q3TV70 (peptide sequence: VLGEKAG, peptide start residue: 134) | -0.2
